These are yes or no findings as the source states them, for the method shown. In cells and extracts the contact can be indirect. A yes stands for co-enrichment or nearness to the bait. Other partners may have been found. For some assays here: No binding means not detected with the bait.
Key:
[1] = biological target: recombinantly expressed Aap domain-A (rDomain-A) (S. epidermidis); assay: affinity purification with mass spectrometry; recombinant Aap domain (rDomain-B, or rDomain-A as control) coupled to a HiTrap NHS-activated Sepharose column; crude biofilm matrix preparation of S. epidermidis 1457 in PBS loaded, 30 min at room temperature; washed (PBS pH 7.4 by the results), eluted with Tris-HCl (pH 2 by the results); fractions by SDS-PAGE and silver staining, bands identified by ESI-MS; only the target purified
[2] = biological target: recombinantly expressed Aap domain-B (rDomain-B) (S. epidermidis); assay: as above

B1: S. epidermidis major Autolysin AtlE, from biofilm matrix (protein, UniProt Q5HQB9 30-1335)
chain: AEQPQNQSNHKNVLDDQTALKQAEKAKSEVTQSTTNVSGTQTYQDPTQVQPKQDTQSTTYDASLDEMSTYNEISSNQKQQSLSTDDANQNQTNSVTKNQQEETNDLTQEDKTSTDTNQLQETQSVAKENEKDLGANANNEQQDKKMTASQPSENQAIETQTASNDNESQQKSQQVTSEQNETATPKVSNTNASGYNFDYDDEDDDSSTDHLEPISLNNVNATSKQTTSYKYKEPAQRVTTNTVKKETASNQATIDTKQFTPFSATAQPRTVYSVSSQKTSSLPKYTPKVNSSINNYIRKKNMKAPRIEEDYTSYFPKYGYRNGVGRPEGIVVHDTANDNSTIDGEIAFMKRNYTNAFVHAFVDGNRIIETAPTDYLSWGAGPYGNQRFINVEIVHTHDYDSFARSMNNYADYAATQLQYYNLKPDSAENDGRGTVWTHAAISNFLGGTDHADPHQYLRSHNYSYAELYDLIYEKYLIKTKQVAPWGTTSTKPSQPSKPSGGTNNKLTVSANRGVAQIKPTNNGLYTTVYDSKGHKTDQVQKTLSVTKTATLGNNKFYLVEDYNSGKKYGWVKQGDVVYNTAKAPVKVNQTYNVKAGSTLYTVPWGTPKQVASKVSGTGNQTFKATKQQQIDKATYLYGTVNGKSGWISKYYLTTASKPSNPTKPSTNNQLTVTNNSGVAQINAKNSGLYTTVYDTKGKTTNQIQRTLSVTKAATLGDKKFYLVGDYNTGTNYGWVKQDEVIYNTAKSPVKINQTYNVKPGVKLHTVPWGTYNQVAGTVSGKGDQTFKATKQQQIDKATYLYGTVNGKSGWISKYYLTAPSKVQALSTQSTPAPKQVKPSTQTVNQIAQVKANNSGIRASVYDKTAKSGTKYANRTFLINKQRTQGNNTYVLLQDGTSNTPLGWVNINDVTTQNIGKQTQSIGKYSVKPTNNGLYSIAWGTKNQQLLAPNTLANQAFNASKAVYVGKDLYLYGTVNNRTGWIAAKDLIQNSTDAQSTPYNYTFVINNSKSYFYMDPTKANRYSLKPYYEQTFTVIKQKNINGVKWYYGQLLDGKYVWIKSTDLVKEKIKYAYTGMTLNNAINIQSRLKYKPQVQNEPLKWSNANYSQIKNAMDTKRLANDSSLKYQFLRLDQPQYLSAQALNKLLKGKGVLENQGAAFSQAARKYGLNEIYLISHALVETGNGTSQLAKGGDVSKGKFTTKTGHKYHNVFGIGAFDNNALVDGIKYAKNAGWTSVSKAIIGGAKFIGNSYVKAGQNTLYKMRWNPANPGTHQYATDINWANVNAQVLKQFYDKIGEVGKYFEIPTYK
With B1 the binding [1] was “no binding” and the binding [2] was “binds”.

Source: paper PMC4370877
